Laboratory results from patent publication US20220401585A1 (RIGSHOSPITALET, priority 2019, published 2022).

Test: general procedure: Fmoc solid-phase peptide synthesis; Fmoc Ser(t-Bu) TentaGel S PHB 0.25 mmol/g; HBTU/HOAt/DIEA; HATU/HOAt/DIEA for the dye
Conditions: whole synthesis, scale 0.1 mmol

Q: For “IRDye800-Glu-Glu-O2Oc-O2Oc-Asp-Cha-Phe-D-ser-D-arg-Tyr-Leu-Trp-Ser-OH”, which “crude LC-MS purity” value (UHPLC-MS (C4 and C18 columns)) is on record?
A: above 80%

Q: And the “final LC-MS purity” value (UHPLC-MS (C4 and C18 columns))?
A: 98%

Q: What about the isolated mass of the same substance?
A: 2 mg
